Publication doi:10.1101/2024.01.16.575974
These are yes or no findings as the source states them, for the method shown. Binding calls can cover weak binding; strength is not graded here.

The chains behind the UniProt entries cited, without tags or fusion partners. Where a name states a change or a piece, a line headed by the entry shows the natural chain unless it says otherwise.
UniProt O34876: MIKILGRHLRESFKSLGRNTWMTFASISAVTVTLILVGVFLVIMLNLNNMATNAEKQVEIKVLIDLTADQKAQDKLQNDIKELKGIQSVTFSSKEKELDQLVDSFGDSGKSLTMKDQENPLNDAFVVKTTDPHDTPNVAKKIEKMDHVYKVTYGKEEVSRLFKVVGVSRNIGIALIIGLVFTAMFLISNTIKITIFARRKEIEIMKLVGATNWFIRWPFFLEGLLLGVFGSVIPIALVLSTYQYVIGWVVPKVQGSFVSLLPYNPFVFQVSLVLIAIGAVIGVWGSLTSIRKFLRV

Key:
[1] = biological target: T1, Bacillus subtilis FtsE (Bacillus subtilis subsp. subtilis ATCC 23857) (UniProt O34814); experiment: SEC
T1 sequence: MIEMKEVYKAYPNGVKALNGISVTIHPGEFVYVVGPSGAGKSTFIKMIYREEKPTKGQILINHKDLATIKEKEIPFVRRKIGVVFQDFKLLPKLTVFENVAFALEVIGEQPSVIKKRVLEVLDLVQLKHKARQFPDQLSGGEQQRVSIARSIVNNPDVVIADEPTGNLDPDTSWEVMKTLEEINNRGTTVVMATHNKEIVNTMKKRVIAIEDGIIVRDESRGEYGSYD

[2] = biological target: Streptococcus pneumoniae FtsEX complex overexpressed in E. coli (Streptococcus pneumoniae); experiment: styrene-maleic acid isolation and affinity purification

## Bacillus subtilis FtsX (from UniProt O34876)
[1]
  binding: binds

B1: Escherichia coli FtsA, endogenous (protein, UniProt P0ABH0 1-420)
chain: MIKATDRKLVVGLEIGTAKVAALVGEVLPDGMVNIIGVGSCPSRGMDKGGVNDLESVVKCVQRAIDQAELMADCQISSVYLALSGKHISCQNEIGMVPISEEEVTQEDVENVVHTAKSVRVRDEHRVLHVIPQEYAIDYQEGIKNPVGLSGVRMQAKVHLITCHNDMAKNIVKAVERCGLKVDQLIFAGLASSYSVLTEDERELGVCVVDIGGGTMDIAVYTGGALRHTKVIPYAGNVVTSDIAYAFGTPPSDAEAIKVRHGCALGSIVGKDESVEVPSVGGRPPRSLQRQTLAEVIEPRYTELLNLVNEEILQLQEKLRQQGVKHHLAAGIVLTGGAAQIEGLAACAQRVFHTQVRIGAPLNITGLTDYAQEPYYSTAVGLLHYGKESHLNGEAEVEKRVTASVGSWIKRLNSWLRKEF
[2]
  binding: binds
